These results are taken from article PMC7819943, “Rice protein-binding microarrays: a tool to detect cis-acting elements near promoter regions in rice”.

The chains behind the UniProt entries cited, without tags or fusion partners.
UniProt Q0JBA9, entry or part of it: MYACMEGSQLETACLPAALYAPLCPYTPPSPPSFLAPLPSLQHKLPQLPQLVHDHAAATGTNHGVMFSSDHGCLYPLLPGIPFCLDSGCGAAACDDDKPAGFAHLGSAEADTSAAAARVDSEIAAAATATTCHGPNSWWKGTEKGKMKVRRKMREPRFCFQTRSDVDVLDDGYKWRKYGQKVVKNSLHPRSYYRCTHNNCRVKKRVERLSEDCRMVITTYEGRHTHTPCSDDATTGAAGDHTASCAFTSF

This is one part of the list.

For the assay, the target named is OsWRKY34 (Oryza sativa, UniProt Q0JBA9 1-250). Briefly: protein-binding microarray (RPBM); PBS, 2% BSA, 51.3 ng/ul salmon testes DNA, 50 uM zinc acetate, 200 nM TF, 25 C, 1 h; high values mean tight binding. As to conditions: protein: recombinant; tags: N-terminal polyhistidine and DsRed monomer fusion (pET32a); label: CyDye5-dUTP incorporated in the synthesized complementary strand; 3' TTTTT single-stranded linker to array surface; dsDNA, one strand shown. The method in brief:
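Binding signal is defined as the fluorescence intensity of each feature in arbitrary units, read on an Axon 4000B scanner. Transcription factors with N-terminal polyhistidine and DsRed fusions came from E. coli BL21-CodonPlus and were purified on Ni–NTA. They were incubated at 200 nM for 1 h at 25 °C on a custom Agilent array that had been made double-stranded with Cy5-dUTP, with 50 µM zinc acetate present, and the array was washed.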
For “GCCATGCGATTTTCGAGCTGCATGCAGCATGGAACATTCCCGGAGTCACCTAGTGCAG”, the binding signal is 8280 fluorescence intensity (a.u.).

Turning to “AATTTCCATTCTCCTCACACCTTTAAAAGTAGGCTCAAAACGGAGTCACCTAGTGCAG”, the binding signal is 8040 fluorescence intensity (a.u.).

With “ACTATACATATTGCATCTGTTGCATATAATACTGTATTTCCGGAGTCACCTAGTGCAG”, the binding signal was 8690 fluorescence intensity (a.u.).

For the sequence “TTTTTTGTTGCTCGGACTGAAGTTCCTGAGCCTTGATTTTCGGAGTCACCTAGTGCAG”, the binding signal is 10600 fluorescence intensity (a.u.).

With “GCGGGATGGCAGTTCTTACTTCTAGAGTTTTTTTATCTGACGGAGTCACCTAGTGCAG”, the binding signal is 9690 fluorescence intensity (a.u.).

Turning to “GTTCTGTTCAACCTCGGTCTGCTCTGCACGTGCCCTGCGGCGGAGTCACCTAGTGCAG”, the binding signal was 8580 fluorescence intensity (a.u.).

Turning to “AAATCGTCTCAAGTTTTACTTTGAATTTGTACTGTAGGTCCGGAGTCACCTAGTGCAG”, the binding signal is 8220 fluorescence intensity (a.u.).

Take “TCCCTCCGCGTCAAAGGAAAATCTCCCGTCTTCGTCTCCGCGGAGTCACCTAGTGCAG”: the binding signal is 8350 fluorescence intensity (a.u.).

In the case of “TCACAACATTCTCTCGTTTAATTTTACATACTTTTTCTAACGGAGTCACCTAGTGCAG”, the binding signal is 8560 fluorescence intensity (a.u.).

For the sequence “CTTTGTTCTTTGCGGTGTTTCGTTTTCACATCCCTGGAAACGGAGTCACCTAGTGCAG”, the binding signal is 13600 fluorescence intensity (a.u.).

“CAGATCACTTTATTACATGCCTTTTTTCGCCGGCCAATCACGGAGTCACCTAGTGCAG”: the binding signal was 8260 fluorescence intensity (a.u.).

For the sequence “CTGTGTTGCCCAAGTCTTTAAATAGCTCTCTCCTCAGTCTCGGAGTCACCTAGTGCAG”, the binding signal was 9410 fluorescence intensity (a.u.).

Consider “CTTCTCACACGTCGTCAAAGCCTCTGACTTTGGATATCCCCGGAGTCACCTAGTGCAG”, for which the binding signal is 9990 fluorescence intensity (a.u.).

Take “ACGCGGAGGGGTATTTCATCTAGTATTATTTAAGAGCTATCGGAGTCACCTAGTGCAG”: the binding signal was 8800 fluorescence intensity (a.u.).

On to “ACCATAGGCAGCTTTACGTAACAATAACGTCCACCCGCTTCGGAGTCACCTAGTGCAG”, for which the binding signal was 8180 fluorescence intensity (a.u.).

Turning to “GGATAACATAGTCATCGGTATTACTTTCTGCGCAATCAATCGGAGTCACCTAGTGCAG”, the binding signal was 8560 fluorescence intensity (a.u.).

As to “CCGCCAAGGTTGTGCCAGTTCCGGTTTTTTTCCAGTTCAACGGAGTCACCTAGTGCAG”, the binding signal is 9260 fluorescence intensity (a.u.).

As to “TTTCTGCAATGAGGTCATGTTTCATACCATCTTATTTTGTCGGAGTCACCTAGTGCAG”, the binding signal was 8830 fluorescence intensity (a.u.).

“ATTGGGTTGATATTATATTGGCAGGGCCAGAAAGTTTTACCGGAGTCACCTAGTGCAG”: the binding signal is 8580 fluorescence intensity (a.u.).

In the case of “CTTGCCACATCATTTTTCATCCTAGGTGGTAGCTTATTTACGGAGTCACCTAGTGCAG”, the binding signal was 12900 fluorescence intensity (a.u.).

For “CCCTCGGCAGCCAAAATTTTGCTCATCATCCTCTCCAGTTCGGAGTCACCTAGTGCAG”, the binding signal was 10000 fluorescence intensity (a.u.).

Turning to “GCCACCGCCTGCCTGCCGCCGCCGTCTCCCACCTCCCGCCCGGAGTCACCTAGTGCAG”, the binding signal was 11200 fluorescence intensity (a.u.).

For the sequence “GGCCCCTTATTTATTCGCATTCCTCTCCTCATCATCACTCCGGAGTCACCTAGTGCAG”, the binding signal was 8970 fluorescence intensity (a.u.).

Consider “TTCTTCGTATTTATTCCTGTTCATCATCATCCCTGACGTCCGGAGTCACCTAGTGCAG”, for which the binding signal is 10700 fluorescence intensity (a.u.).

In the case of “GAGCTTTGATATATATTTGTACGAGTAAGCAGTACTCCATCGGAGTCACCTAGTGCAG”, the binding signal was 8290 fluorescence intensity (a.u.).

As to “CGCCGGTACGTTTTCCCCGCCGCCGCCTTTCCGGCCGGCCCGGAGTCACCTAGTGCAG”, the binding signal is 8950 fluorescence intensity (a.u.).

As for “ACTACTCTGTTTGACCATCATTTTAGTTTTCCTCGATTAACGGAGTCACCTAGTGCAG”, the binding signal is 9420 fluorescence intensity (a.u.).

Regarding “TCTGTTCCGCATGTTCGAGCTCGCCTACAGCAACATATTTCGGAGTCACCTAGTGCAG”, the binding signal is 9270 fluorescence intensity (a.u.).

“TCTAGCACTCTTTTTTTTCCTGAATTTAGAACTCATTGCCCGGAGTCACCTAGTGCAG”: the binding signal was 8270 fluorescence intensity (a.u.).

On to “CTGTCATCACTCATCACTCTTTCTCAAAGCTTCTATCAAACGGAGTCACCTAGTGCAG”, for which the binding signal is 10100 fluorescence intensity (a.u.).

Take “TCATTTGCTCCATGCTGTATCTGTTTTGACAAATTGTTCACGGAGTCACCTAGTGCAG”: the binding signal is 10200 fluorescence intensity (a.u.).

With “GCAAGCACTAGTACTCCATTGACTAGTCTTTCATTTCACACGGAGTCACCTAGTGCAG”, the binding signal was 9420 fluorescence intensity (a.u.).

For the sequence “CTTCTCGTGGGGCATATATCCCTTCTGCGCTGTACTGTAACGGAGTCACCTAGTGCAG”, the binding signal is 9620 fluorescence intensity (a.u.).

Consider “ATTTCTTCTATTTTGTTTTGACAATACTGTGTTTCAAAGACGGAGTCACCTAGTGCAG”, for which the binding signal is 8530 fluorescence intensity (a.u.).

Regarding “GAGAGTTGGCTATATGGGTGTTTGGAGAGTTCGATTTGGACGGAGTCACCTAGTGCAG”, the binding signal is 10100 fluorescence intensity (a.u.).

For the sequence “GGGAGTACATTTACATTTTATTATTATTGTCATTTTTTATCGGAGTCACCTAGTGCAG”, the binding signal was 11200 fluorescence intensity (a.u.).

For the sequence “CAAGTGTTCAGTGTCCTCGATTTGTTTTGTATTTGGTAACCGGAGTCACCTAGTGCAG”, the binding signal was 13000 fluorescence intensity (a.u.).

Turning to “TCTCTTTTTGTTGTCTTTATGTTTGTATGTTTGTCTCCTTCGGAGTCACCTAGTGCAG”, the binding signal was 12700 fluorescence intensity (a.u.).

For “TCAGTTTAGTCCTTGATATTTCAATCTATCCATATTAGTCCGGAGTCACCTAGTGCAG”, the binding signal was 8390 fluorescence intensity (a.u.).

“TTCTCCCTTTATTTTTGTTTATATAATTTCCAGATCAAAGCGGAGTCACCTAGTGCAG”: the binding signal was 8890 fluorescence intensity (a.u.).

In the case of “ATTACACGCTTGAGTTGCAACCATTTCTGCAGTTTCGGCTCGGAGTCACCTAGTGCAG”, the binding signal was 8950 fluorescence intensity (a.u.).

Turning to “CACATTAGAACAATTCAAAGTCTCATACATCATCGTTCATCGGAGTCACCTAGTGCAG”, the binding signal was 8230 fluorescence intensity (a.u.).

As for “CGCGATCACTCGATCTCACTCACCAACCTTTTCCATTTTACGGAGTCACCTAGTGCAG”, the binding signal is 12200 fluorescence intensity (a.u.).

For “GACAAGTTTCAGTGCGTGACAGGGGAGGGGCTACAGAACTCGGAGTCACCTAGTGCAG”, the binding signal was 8750 fluorescence intensity (a.u.).

Take “AGGCTCATCCTGTCCCGTCCTGTAGCCGTTACAAGTTGGTCGGAGTCACCTAGTGCAG”: the binding signal was 8070 fluorescence intensity (a.u.).

Regarding “TGGTTCTTTGATCTTTTAATTTTGTTTGTTTGTTTGTTTTCGGAGTCACCTAGTGCAG”, the binding signal was 12800 fluorescence intensity (a.u.).

Turning to “ACGCCACCCGCGCCCGCGCCCAACCAACCCACTCGGTCTCCGGAGTCACCTAGTGCAG”, the binding signal was 9030 fluorescence intensity (a.u.).

Regarding “GGCTGTTGTTTTTCCTTGTTATTCTTTCAGTAAGATATTTCGGAGTCACCTAGTGCAG”, the binding signal was 12800 fluorescence intensity (a.u.).

With “GTATTACTTATAGGGTGTTTGCATGTTTCAATTGTTTTAACGGAGTCACCTAGTGCAG”, the binding signal was 8120 fluorescence intensity (a.u.).

Turning to “GCTAGGGTTGCGCTGCTTCGGTCTCGGTCTTGGCGCCGCCCGGAGTCACCTAGTGCAG”, the binding signal was 8110 fluorescence intensity (a.u.).

On to “TGCATTAATTGCTTCCATATCTGGGGTTCAAACTGATATCCGGAGTCACCTAGTGCAG”, for which the binding signal is 8800 fluorescence intensity (a.u.).

“GAAGTGTCGAACTCAACCTCGTCTCTCAGTCTCCGTCACTCGGAGTCACCTAGTGCAG”: the binding signal is 10500 fluorescence intensity (a.u.).

As for “CACCAGTAATATCGTACAGTACTACTCCAACATGTCACCACGGAGTCACCTAGTGCAG”, the binding signal was 8550 fluorescence intensity (a.u.).

On to “TTTGGTTGGGGCGATCTTTCTGGGCTGGGCCGCAAGTTCACGGAGTCACCTAGTGCAG”, for which the binding signal is 10700 fluorescence intensity (a.u.).
